Results published in PubChem BioAssay AID651640 (Broad Institute, 2012).
Hit rate of the full screen: of about 350,000 compounds, about 6,000 (1.7%) were called active. The shares of active, inactive and inconclusive entries below differ from those in the screen. Rule as the data show it: active = CPE inhibition above about 20% (passing the limit was not always enough); inconclusive = no clear call, values can overlap the other calls; tested in BHK-21 cells.

assay: protection of cells from dengue 2 killing – plate reader, single concentration, primary screen (AID 651640); details: DENV2-infected cells, cytopathic effect rescue, at 9.99 µM, hits give high values;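 also: 0% = median of neutral control wells and 100% = median of positive control wells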

| Structure (SMILES) | CPE inhibition |
| --- | --- |
| O=C(Nc1ccccc1)N[C@@H]1CC[C@H](CCNS(=O)(=O)c2cccc(F)c2)O[C@H]1CO | inactive: 14.9% |
| COc1ccccc1-c1cnc2c(c1)C(=O)N([C@@H](C)CO)C[C@H](C)[C@@H](CN(C)Cc1cccc(F)c1)O2 | inactive: -6.87% |
| C[C@@H]1CCCCO[C@H](CN(C)C(=O)NC2CCCCC2)[C@@H](C)CN([C@H](C)CO)C(=O)c2cc(N(C)C)ccc2O1 | inconclusive: 108% |
| COc1cccc(S(=O)(=O)N[C@@H]2C=C[C@H](CC(=O)NCc3ccc(F)cc3)O[C@@H]2CO)c1 | active: 33.3% |
| CC(C)c1cc(C(=O)NCCc2cccs2)c(N)s1 | inconclusive: 37.3% |
| O=C1NC(Cc2ccccc2)c2nc3ccc(F)cc3c(=O)n2-c2ncccc21 (stereo not given) | inconclusive: 33% |
| NC(c1csc(NC(=O)Nc2cccc(Cl)c2)n1)C1CCCCC1 (stereo not given) | active: 112% |
| COCC(=O)N1C[C@@H](C)[C@H](OC)CN(C)C(=O)c2cc(NC(=O)C3CCC3)ccc2OC[C@@H]1C | active: 23.2% |
| CN1CCN(C(=O)/C(=C\c2cccnc2)NC(=O)c2cccc(Br)c2)CC1 | inconclusive: 21% |
| Cc1cc(=O)c2cc(NC(=O)c3ccccc3Cl)ccc2[nH]1 | inconclusive: 41.3% |
| C[C@@H]1CN([C@@H](C)CO)C(=O)c2cccc(NC(=O)c3ccc(-c4nccs4)cc3)c2O[C@H]1CN(C)CC1CC1 | inconclusive: 31% |
| COc1ccc2cc(-c3[nH]ncc3CNCCn3nc(C)cc3C)ccc2c1 | active: 22.2% |
| CS(=O)(=O)Nc1ccc2c(c1)[C@@H]1C[C@H](CC(=O)N3CCc4ccccc4C3)O[C@@H](CO)[C@@H]1O2 | inconclusive: 34.5% |
| CC(=O)c1ccc(OC(=O)Cc2cccc3ccccc23)cc1 | inactive: 10.5% |
| CN(C)c1nc2c(c(=O)[nH]c(=O)n2C)n1CCOc1ccccc1 | inconclusive: 29.1% |
| COc1ccccc1N(C)S(=O)(=O)c1ccc(C(=O)Nc2ncc(C)s2)cc1 | inconclusive: 24.1% |
| C/C=C/c1cnc2c(c1)C(=O)N([C@@H](C)CO)C[C@@H](C)[C@H](CN(C)S(=O)(=O)c1cccs1)O2 | inactive: -11% |
| O=S1(=O)CCO[C@H]2Cc3ccccc3[C@H]2N1Cc1cccc(F)c1 | inactive: -17% |
| COCCNC(=O)C[C@@H]1C[C@H]2c3cc(NC(=O)c4cccnc4)ccc3O[C@H]2[C@H](CO)O1 | inconclusive: 35.5% |
| C[C@H](CO)N1C[C@H](C)[C@H](CN(C)C(=O)Nc2ccc(F)cc2)OCCCC[C@H](C)Oc2ccc(NC(=O)Nc3ccccc3)cc2C1=O | inactive: -3.35% |
| O=C(O)c1ccccc1-c1ccccc1C(=O)Nc1nccs1 | inconclusive: 26% |
| O=C(C1=C[C@@H](c2ccccc2)C[C@@H](OCCCCO)O1)N1CCN(Cc2ccc3c(c2)OCO3)CC1 | inconclusive: 56% |
| COc1ccc(-n2nc(C(=O)NCC(=O)Nc3cccc(Cl)c3)c3ccccc3c2=O)cc1OC | inactive: -1.57% |
| CCCCn1c(N)c(N(CCOC)C(=O)CSCC(=O)Nc2cccc(C)c2)c(=O)[nH]c1=O | inconclusive: 76.5% |
| CC(C)Cc1ccc(C(C)C(N)=NCCc2ccccc2)cc1 (stereo not given) | active: 33.4% |

Reformatted bar-delimited: entries from further up.
Structure (SMILES) | CPE inhibition
O=C1NC(Cc2ccccc2)c2nc3ccc(F)cc3c(=O)n2-c2ncccc21 (stereo not given) | inconclusive: 33%
NC(c1csc(NC(=O)Nc2cccc(Cl)c2)n1)C1CCCCC1 (stereo not given) | active: 112%
COCC(=O)N1C[C@@H](C)[C@H](OC)CN(C)C(=O)c2cc(NC(=O)C3CCC3)ccc2OC[C@@H]1C | active: 23.2%
CN1CCN(C(=O)/C(=C\c2cccnc2)NC(=O)c2cccc(Br)c2)CC1 | inconclusive: 21%
Cc1cc(=O)c2cc(NC(=O)c3ccccc3Cl)ccc2[nH]1 | inconclusive: 41.3%

The results go on:

| Structure (SMILES) | CPE inhibition |
| --- | --- |
| CCCCCCN1C[C@H](n2cc(-c3ccc(F)cc3)nn2)[C@@H](O)C[C@@H]1c1ccccc1 | active: 92.7% |
| COc1ccc(/C=C2/SC(=S)N(Cc3ccccc3)C2=O)cc1O | inactive: 0.643% |
| COc1ccc(-c2ccc([C@H]3[C@H](CO)N4C(=O)CN(C(=O)c5ccccc5)C[C@@H]34)cc2)cc1 | inconclusive: 23.9% |
| COc1cccc(C(=O)c2ccccc2NC(C)=O)c1 | inconclusive: 57.4% |
| COCCN(C[C@H]1N[C@H](CO)[C@@H]1c1ccc(-c2ccc(F)cc2)cc1)C(C)=O | active: 34.8% |
| CC(C)NC(=O)Nc1ccc2c(c1)C(=O)N([C@@H](C)CO)C[C@H](C)[C@@H](CN(C)C(=O)Nc1ccc3c(c1)OCO3)O2 | active: 20.8% |
| CCO[C@H]1OC(C(=O)O)=C[C@@H](C2CCCCC2)[C@@H]1CCCO | active: 45.4% |
| Cc1c(C)c2cc(Cl)c(OCC(=O)NCCCN3CCCC3=O)cc2oc1=O | active: 43.7% |
| CC(=O)C1=C(O)C(=O)N(c2ccc(F)cc2)C1c1ccc(C)cc1 (stereo not given) | inactive: 7.58% |
| COC(=O)[C@@H]1[C@@H](CO)[C@@H]2Cn3c(ccc(-c4ccncc4)c3=O)[C@@H]2N1Cc1ccccc1F | inactive: -0.676% |
| COCC#Cc1ccc([C@H]2[C@@H](CO)N3CCCCN(Cc4cccnc4)C[C@@H]23)cc1 | active: 57.2% |
| COc1cccc(OCc2cc(C(=O)N(C)C3CCCCC3)no2)c1 | inconclusive: 22% |
| O=C(C[C@H]1C[C@@H]2c3cc(NC(=O)C4CCOCC4)ccc3O[C@@H]2[C@@H](CO)O1)NCc1cc(F)ccc1F | inactive: 7.38% |
| O=C(c1ccccc1)N1CCN(C(=O)c2cc3ccccc3oc2=O)CC1 | inconclusive: 26.7% |
| CCCc1nc2ccc(Br)cn2c1Cc1ccccc1 | inactive: -6.76% |
| FC(F)(F)c1cnc(N2CCSCC2)c(Cl)c1 | inconclusive: 49.1% |
| CC(=O)Nc1ccc2c(c1)C(=O)N(C)[C@H]1CC[C@H](CC(=O)NCc3ccccc3)O[C@H]1CO2 | inconclusive: 73.9% |
| CC(C)c1cc(NCCOCCO)n2c(nc3ccccc32)c1C#N | inactive: 3.04% |
| COc1ccc(-c2cc(C(=O)N3CCN(C(=O)c4ccco4)CC3)[nH]n2)cc1 | inconclusive: 41.5% |
| CSCC[C@H](NC(=O)OC(C)(C)C)C(=O)N1CCC(C(=O)N[C@@H](C)C(=O)NCc2ccc(F)cc2)CC1 | active: 35.7% |
| CCCNC(=O)C[C@@H]1CC[C@H]2[C@H](COc3ccc(NC(=O)Nc4c(C)noc4C)cc3C(=O)N2C)O1 | inconclusive: 34.5% |
| COc1ccccc1C(=O)N1C[C@@H]2[C@H](c3ccccc31)[C@H](CO)N2CC1CCCC1 | inactive: -10.7% |
| Nc1ccccc1SC/C=C/CSc1ccccc1N | inconclusive: 37.6% |
| CC(=O)c1c(C)[nH]c(C(=O)COC(=O)c2nccnc2N)c1C | inconclusive: 51.1% |
| CN(C)CCCNC(=O)C[C@@H]1CC[C@@H]2[C@H](COC[C@@H](O)CN2C(=O)c2ccncc2)O1 | inactive: -2.52% |

Laid out differently: entries from further up
Structure (SMILES) | CPE inhibition
CCO[C@H]1OC(C(=O)O)=C[C@@H](C2CCCCC2)[C@@H]1CCCO | active: 45.4%
COCC#Cc1ccc([C@H]2[C@@H](CO)N3CCCCN(Cc4cccnc4)C[C@@H]23)cc1 | active: 57.2%

More results:

| Structure (SMILES) | CPE inhibition |
| --- | --- |
| O=C(NCc1ccco1)c1ccc(Cn2c(=O)c3sccc3n(Cc3cccc(F)c3)c2=O)cc1 | inactive: -7.51% |
| CC(C)C[C@@H](COCc1ccc(Cl)cc1)N1CCN(C(=O)c2ccc(C(F)(F)F)cc2)CCC1=O | inactive: -4.92% |
| C[C@@H]1CN([C@H](C)CO)C(=O)c2cccc(NS(=O)(=O)c3cn(C)cn3)c2O[C@H]1CN(C)Cc1ccc(C(=O)Nc2ccccc2N)cc1 | inactive: -6.32% |
| CO[C@H]1CN(C)C(=O)c2cc(NC(=O)CC(F)(F)F)ccc2OC[C@@H](C)N(C(=O)C2CCOCC2)C[C@@H]1C | inactive: -7.08% |
| NC(=S)NN=C1CCCCCCCCCC1 | inactive: -6.41% |
| O=C(c1ccccc1F)N1CCC2CC1c1cc(-c3ccc4c(c3)OCO4)ccc12 (stereo not given) | inconclusive: 31.4% |
| C[C@@H]1CN([C@H](C)CO)S(=O)(=O)c2ccc(-c3cncnc3)cc2O[C@H]1CN(C)C(=O)Cc1ccncc1 | inconclusive: 13.2% |
| CCCC#Cc1ccc([C@@H]2[C@@H](CO)N3C(=O)CN(C(=O)c4ccccc4)C[C@H]23)cc1 | inactive: -3.58% |
| COc1ccc(N(C(=O)c2cccnc2)S(=O)(=O)c2ccc(OC)c(OC)c2)cc1 | active: 29.9% |
| CN1CCCCN2[C@H](CO)[C@@H](c3ccc(Br)cc3)[C@@H]2C1 | inactive: -4.96% |
| Cn1nc(C(F)(F)F)cc1C(=O)O | inconclusive: 20.9% |
| O=C(O)c1cccnc1 | inconclusive: 33.5% |
| CC(C)NC(=O)Nc1ccc2c(c1)C(=O)N([C@@H](C)CO)C[C@H](C)[C@H](CN(C)Cc1ccc(C(=O)O)cc1)OCCCC[C@@H](C)O2 | active: 25.2% |
| O=C(CNc1cccc(S(=O)(=O)N2CCCC2)c1)Nc1cccc(Br)c1 | inconclusive: 25.8% |
| CC1CCCC(NC(=O)CSc2n[nH]c(N)n2)C1C (stereo not given) | inconclusive: 38.1% |
| COCC(=O)Nc1ccc2c(c1)C(=O)N(C)C[C@@H](OC)[C@@H](C)CN(Cc1ccccc1OC)[C@H](C)CO2 | inactive: -0.852% |
| O=C(C[C@H]1CC[C@H]2[C@@H](COC[C@@H](O)CN2C(=O)c2ccncc2)O1)NCc1cc(F)cc(F)c1 | inconclusive: 23.9% |
| CC(C)C(NS(=O)(=O)c1ccc2c(c1)C(C)(C)C(=O)N2C)C(=O)NCc1ccccc1Cl (stereo not given) | active: 79.9% |
| COc1cc(Nc2ccn3nccc3n2)cc(OC)c1OC | active: 22.7% |
| CCc1nnc(SCC(=O)Nc2ccc(F)cc2)o1 | inconclusive: 29.5% |
| COCC(=O)N1[C@@H](CO)[C@H](c2ccc(-c3cccc(OC)c3)cc2)C12CN(C(C)=O)C2 | active: 30.9% |
| C[C@@H]1CN([C@@H](C)CO)C(=O)c2cc(NC(=O)c3ccncc3)ccc2O[C@H]1CN(C)C(=O)NC1CCCCC1 | active: 35.3% |
| COc1ccc(-c2cnc3c(c2)C(=O)N([C@@H](C)CO)C[C@@H](C)[C@H](CN(C)C(=O)C2CCC2)O3)cc1 | inactive: -8% |
| COc1ccc(NC(=O)c2nc[nH]c2C(=O)NCC(=O)OC(C)(C)C)cc1 | inconclusive: 23.5% |
| CCOc1ccccc1NC(=O)c1ccc2c(O)c(S(=O)(=O)c3ccccc3)c(=O)[nH]c2c1 | inconclusive: 34.1% |
